# According to PubChem BioAssay AID1259415 (National Center for Advancing Translational Sciences (NCATS), 2018):
# Out of some 410,000 compounds screened, about 18,000 (4.4%) were called active. Inconclusive results, whose numbers are uncertain, are shown with a selection of clear calls. No stated cut-off is given here; in the data, active means activity change below about -60%; inconclusive means no clear call, values can overlap the other calls; inactive means above about -39%.
# Assay: qHTS Assay for inhibitors of the human cytomegalovirus (HCMV)
# Settings: HFF cells, HCMV-luciferase reporter, 72 h; at 57.5 µM; hits give low values
# Procedure, shortened: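 After 16 h attachment at 37C, HFF cells received test compound and HCMV-luciferase (1 PFU/cell); reporter luminescence read 72 h later, data normalized against buffer-only and known inhibitor Salinomycin.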
# On the % scale 0 is the no-effect control and ±100 the full control effect.
row,SMILES,"activity change, negative = inhibition"
1,NC(=O)c1cccc(-c2coc3c(C(=O)NCc4ccccc4)cccc23)c1,inconclusive: -40%
2,CCc1ccc(-n2c(SCC(=O)NC(C)CC)nc3n[nH]c(C)c3c2=N)cc1 (stereo unspecified),inconclusive: -49.1%
3,COc1cccc(CSc2nnc(-c3ccncc3)n2N)c1,active: -68.5%
4,COc1ccc(OC)c(CNc2ccc([N+](=O)[O-])cc2C)c1,active: -91.3%
5,CC(=O)Nc1ccc(S(=O)(=O)N2CCSC2c2ccccc2Cl)cc1 (stereo unspecified),inconclusive: -46.4%
6,CC1CC(C)CN(C(=O)Cn2c(=O)n(CCCC(=O)NCc3ccco3)c(=O)c3sccc32)C1 (stereo unspecified),inactive: -13%
7,O=C(NN(c1ccccc1)c1ccccc1)c1ccc([N+](=O)[O-])o1,active: -92.9%
8,O=S(=O)(c1ccc(Br)cc1)c1nc(-c2ccco2)oc1NCCCn1ccnc1,inactive: -3.17%
9,O=C(NCCCl)Nc1ccc(Cl)c([N+](=O)[O-])c1,inconclusive: -50.6%
10,CCOC(=O)N1CCN(Cc2nc3cc(NC(=O)c4cccs4)ccc3n2C)CC1,inconclusive: -40.3%
11,COc1cc(NCCCNC(C)C)c2nccc(C)c2c1,inconclusive: -44.9%
12,O=C(NCc1ccccc1Cl)c1ccc[nH]1,inconclusive: -41.1%
13,CSc1ccc(/C=N/n2c(C3CCCCC3)n[nH]c2=S)cc1,inconclusive: -43.5%
14,Cc1cccc(Cc2ccc(Cl)nn2)c1,inconclusive: -45.1%
15,CCOc1ccc(NC(=O)C2C3CCC4C(CCC32)C4(Cl)Cl)cc1 (stereo unspecified),inconclusive: -46.2%
16,CCCCC(=O)NC(=S)Nc1ccc(Cl)c(C(=O)O)c1,inconclusive: -53.6%
17,O=C(NCCc1ccccc1)c1ccccc1NS(=O)(=O)N1CCCC1,inactive: 11%
18,CCCCN(CC)C(=O)CCn1c(=O)c2cccn2c2cccnc21,inconclusive: -40.6%
19,Cc1nc2sccc2c(=O)n1-c1ccccc1Cl,inconclusive: -42.2%
20,O=C(O)c1ccc(N=Cc2c(O)[nH]c(=O)[nH]c2=O)cc1,active: -76.1%
21,O=c1c2cn[nH]c2nc(SCc2cc(=O)n3cc(Br)ccc3n2)n1-c1ccc(Br)cc1,active: -72.5%
22,Cc1c(NC(=O)c2ccc3c4c(cccc24)CC3)c(=O)n(-c2ccccc2)n1C,inconclusive: -48.6%
23,CCCc1cc(N2CCN(C(=O)c3ccco3)CC2)n2c(nc3ccccc32)c1C#N,inconclusive: -41%
24,CN1C(=O)SC(Nc2ccccc2)C1=O (stereo unspecified),inconclusive: -47%
25,Cc1ccc(N=C(N)N=C(N)N)c(C)c1,inconclusive: -47.8%
26,Cc1ccc(F)c(CNC(=O)C2CCC(=O)N(Cc3ccccn3)C2)c1F (stereo unspecified),inconclusive: 0%

# An excerpt of these results, with bars between the fields:
row | SMILES | activity change, negative = inhibition
22 | Cc1c(NC(=O)c2ccc3c4c(cccc24)CC3)c(=O)n(-c2ccccc2)n1C | inconclusive: -48.6%
23 | CCCc1cc(N2CCN(C(=O)c3ccco3)CC2)n2c(nc3ccccc32)c1C#N | inconclusive: -41%
